Measured values taken from publication PMC11534337.
These are yes or no findings as the source states them, for the method shown. In cells and extracts the contact can be indirect. Some entries that bind do so weakly or less than the wild type. For some assays here: Sequences can lack the tags named with a protein.

Sequences of proteins named here, by UniProt entry; tags and fusion partners are left off. A change or cut given only in a name is not applied to a line headed by its entry.
UniProt P26368: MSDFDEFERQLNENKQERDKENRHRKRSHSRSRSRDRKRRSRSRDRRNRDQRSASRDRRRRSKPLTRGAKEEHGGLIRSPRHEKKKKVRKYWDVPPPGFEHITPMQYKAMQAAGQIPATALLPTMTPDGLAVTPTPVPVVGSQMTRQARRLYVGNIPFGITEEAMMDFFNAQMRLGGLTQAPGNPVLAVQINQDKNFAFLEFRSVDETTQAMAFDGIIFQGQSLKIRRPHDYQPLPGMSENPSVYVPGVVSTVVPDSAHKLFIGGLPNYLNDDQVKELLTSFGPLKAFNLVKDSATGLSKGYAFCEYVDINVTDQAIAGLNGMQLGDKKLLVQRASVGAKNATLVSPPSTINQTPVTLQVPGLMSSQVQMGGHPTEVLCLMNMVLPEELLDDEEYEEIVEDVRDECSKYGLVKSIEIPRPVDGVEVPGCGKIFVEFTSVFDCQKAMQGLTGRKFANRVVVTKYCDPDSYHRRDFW
UniProt P26369: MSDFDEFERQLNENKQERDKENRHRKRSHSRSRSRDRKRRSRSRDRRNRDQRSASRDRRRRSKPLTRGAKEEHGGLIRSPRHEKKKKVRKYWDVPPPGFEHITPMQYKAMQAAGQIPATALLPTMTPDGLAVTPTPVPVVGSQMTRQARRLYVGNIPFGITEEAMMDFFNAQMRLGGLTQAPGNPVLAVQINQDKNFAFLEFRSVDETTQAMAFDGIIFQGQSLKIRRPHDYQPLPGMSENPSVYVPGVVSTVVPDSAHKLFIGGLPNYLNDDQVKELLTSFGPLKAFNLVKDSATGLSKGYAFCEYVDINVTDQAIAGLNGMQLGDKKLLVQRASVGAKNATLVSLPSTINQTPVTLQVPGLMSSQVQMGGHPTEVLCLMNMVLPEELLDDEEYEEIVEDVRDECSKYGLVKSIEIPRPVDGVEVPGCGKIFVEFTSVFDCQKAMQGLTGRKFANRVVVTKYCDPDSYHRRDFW

Experiments:
Flag-U2AF2 K413R = Flag-U2AF2 K413R (UniProt P26368); assay: co-IP; HK2 cells transfected with Flag-U2AF2 WT or K413R; IP with anti-Flag antibody; with or without RNase; also under TGF-β1 with SIRT4 overexpression or knock-down (Figure 5D)
Flag-U2AF2 WT, P26368 = assay: as above; details: remark: other sources report otherwise
[1] = target: U2AF2 (mouse (endogenous in primary mouse TECs and mouse kidney)) (UniProt P26369); assay: co-IP; whole-kidney lysates; IP with anti-U2AF2 antibody; endogenous proteins
Flag-U2af2 WT = Flag-U2af2 WT (UniProt P26369); assay: co-IP; WT TECs transfected with Flag-U2af2 and HA-Hat1 (Figure 4N) or with Flag-U2af2, Ad-Hat1 or Ad-shHat1 under TGF-β1 (Figure 4Q); IP with anti-Flag antibody

B1: U2 small nuclear RNA auxiliary factor 1 (U2AF1) (protein, UniProt Q01081 1-240)
chain: MAEYLASIFGTEKDKVNCSFYFKIGACRHGDRCSRLHNKPTFSQTIALLNIYRNPQNSSQSADGLRCAVSDVEMQEHYDEFFEEVFTEMEEKYGEVEEMNVCDNLGDHLVGNVYVKFRREEDAEKAVIDLNNRWFNGQPIHAELSPVTDFREACCRQYEMGECTRGGFCNFMHLKPISRELRRELYGRRRKKHRSRSRSRERRSRSRDRGRGGGGGGGGGGGGRERDRRRSRDRERSGRF
B1 was tested, and the binding (Flag-U2AF2 K413R) was “binds”.

B2: U2 small nuclear RNA auxiliary factor 1 (U2AF1), Q01081 1-240 (protein)
chain: B1 chain
For B2, the binding (Flag-U2AF2 WT, P26368) was “binds”.

B3: HAT1 (protein, UniProt Q8BY71 1-416)
chain: MAALEKFLVEYKSAVEKKLAEYKCNTNTAIELKLVRFPEDLENDIRTFFPEYTHQLFGDDETAFGYKGLKILLYYIAGSLSTLFRVEYSSKVDENFDCVEADDVEGKIRQIIPPGFCTNTNDFLSLLEKETNFKPFGTLLHTYTVPSQTGGETFTFQIHKADMTCRGFREYHERLQTFLMWFIETASFIDVDDERWHYFLVFEKYNKDGATLFATVGYMTVYNYYVYPDKTRPRVSQMLILTPFQGQGHGAQLLETVHRYYISFPTVLDITAEDPSRSYLKLRDFVLVKFCQFLPSFSRERLLQGFSEDMAIQAQQMFKINKQHARRVYEILRLLVTDMSDAEQYRSYRLDIKRRLISPYKKKQRDLAKMKKCLRPEELTNQMNQIEISVQHEQLEERFQELVEDYRRVIERLAQE
With B3 the binding [1] was “binds”.

B4: HA-Hat1 (protein, UniProt Q8BY71 1-416)
chain: B3 chain
With B4 the binding (Flag-U2af2 WT) was “binds”.

B5: HAT1 (Figure 4Q) (protein, UniProt Q8BY71 1-416)
chain: B3 chain
For B5, the binding (Flag-U2af2 WT) was “binds”.
